Experimental data from patent US20090312380A1, “NOVEL COMPOSITIONS AND METHODS” (priority 2006, published 2009).

Tests used:
[1] = Water surface area from GVS data, Excess Surface Work (ESW) model; type: physicochemical
Protocol: The xy-data pairs used for the sorption isotherms (mRH, RH-levels) can also be used for a different approach to describe the sorption isotherm. Here, the change in chemical potential Δμ for the sorption process at each relative humidity (and at temperature T) is calculated:
with: R=Universal Gas Constant • T=Temperature • p=water partial pressure at humidity RH and temperature T • ps=water vapour saturation pressure at temperature T
Based on the change in chemical potential Δμ, an energetic term φ can be calculated for each relative humidity, termed excess surface work (ESW) according to J. Adolphs and M. J. Setzer, Journal of Colloid and Interface Science, vol. 180, pp. 70-76, 1996:
with: Φ=excess surface work • Δμ=change in chemical potential • nads=number of moles of water adsorbed in equilibrium at humidity RH
A plot of Φ/RT vs. nads can then be generated, to allow the value of nads at the minimum value of Φ/RT to be deduced. This value of nads corresponds to nmono.
The calculated monolayer coverage nmono obtained from the application of the gas sorption models to GVS data can be re-calculated to water surface area Awater, taking into account the mean cross sectional area aH2O occupied by one water molecule upon adsorption:
with: Awater=water surface area [m^2/g] • aH2O mean cross sectional area of one water molecule adsorbed 10^−19 m^2/molecule • nmono=apparent amount adsorbed in the monolayer [mol] • NL=Lochschmidt number=6×10^23 molecules/mol • mdry (sample)=dry mass of sample [g]
Likewise, the determination of the ESW water surface area is illustrated for sample A as follows.
A plot of Φ/RT versus the change in mass for sample A was then generated (see FIG. 3). From this, it could be deduced that the minimum value of Φ/RT corresponded to a change in mass of 0.0369 mg, the apparent monolayer amount. This is turn equated to a WSA of 6.65 m^2/g, using equation (A4) above, wherein mdry=18.57 mg.

[2] = Water surface area from GVS data, BET model; type: physicochemical; conditions: p/ps versus [p/ps]/[n(1−p/ps)], FIG. 2
Description: The multilayer sorption model according to Brunauer, Emmet and Teller Journal of the American Chemical Society, vol. 60, pp. 309, 1938) is described as follows:
with: n=number of moles adsorbed at p/p, (=RH/100) • nmono=apparent number of moles adsorbed in monolayer • p/ps=gas partial pressure (=RH/100 in the GVS experiments) • C=BET constant (measure for the strength of the sorption interaction)
From the sorption kinetics, the equilibrium weight changes at the end of each RH stage are extracted to compile xy-data pairs (RH vs. adsorbed amount).
From this, a plot of [p/ps]/[n(1−p/ps)] versus p/ps should give a linear correlation with intercept b=1/[C(nmono)] and slope m=b(C−1). […]
The calculated monolayer coverage nmono obtained from the application of the gas sorption models to GVS data can be re-calculated to water surface area Awater, taking into account the mean cross sectional area aH2O occupied by one water molecule upon adsorption: […]
The determination of the BET water surface area is illustrated for sample A as follows. From the relative humidity data and the mass difference, p/ps and [p/ps]/[n(1−p/ps)] were calculated to give the values shown in Table 4.
A plot of p/ps versus [p/ps]/[n(1−p/ps)] was then generated (see FIG. 2) allowing the slope (m=26.726) and the intercept (b=3.8219) to be calculated. […]

CCCCC1=NC2(CCCC2)C(=O)N1Cc1ccc(-c2ccccc2-c2nnn[nH]2)cc1 [Sample A, irbesartan]
Φ/RT (excess surface work) ([1]; RH 0.33 %): −0.1477 | Φ/RT (excess surface work) ([1]; RH 4.98 %): −0.1777 | Φ/RT (excess surface work) ([1]; RH 10.01 %): −0.2057 | Φ/RT (excess surface work) ([1]; RH 15.00 %): −0.2237 | Φ/RT (excess surface work) ([1]; RH 19.99 %): −0.2297 | Φ/RT (excess surface work) ([1]; RH 25.02 %): −0.2387 | Φ/RT (excess surface work) ([1]; RH 30.00 %): −0.2392 | Φ/RT (excess surface work) ([1]; RH 34.98 %): −0.2319 | Φ/RT (excess surface work) ([1]; RH 40.02 %): −0.2233 | Φ/RT (excess surface work) ([1]; RH 49.98 %): −0.2013 | Φ/RT (excess surface work) ([1]; RH 60.00 %): −0.1733 | Φ/RT (excess surface work) ([1]; RH 70.02 %): −0.1374 | Φ/RT (excess surface work) ([1]; RH 79.99 %): −0.0976 | Φ/RT (excess surface work) ([1]; RH 90.01 %): −0.05423 | Φ/RT (excess surface work) ([1]; RH 93.03 %): −0.03781 | intercept b of BET plot [2]: 3.8219 | slope m of BET plot [2]: 26.726
